Assay results from PMC10258794, “To Fold or Not to Fold: Diastereomeric Optimization of an α-Helical Antimicrobial Peptide” (Journal of Medicinal Chemistry, 2023).
These are yes or no findings as the source states them, for the method shown. Some results given as binding are weak or reduced against the parent protein; the word gives no strength.

Experiments:
Experiment in all cases: crystal structure; co-crystallisation of the C-fucosylated peptide with LecB, sitting drop vapor diffusion, 18 °C; LecB 5 mg/mL in water with 6 mM CaCl2 and MgCl2; peptide at 5:1 molar excess over the LecB monomer; both purified
FHP5 = molecular target: FHP5
bacterial lectin LecB = bacterial lectin LecB (UniProt Q9HYN5)
FHP8 = molecular target: FHP8
FHP31 = molecular target: FHP31

| Binder | binding (FHP5) | binding (bacterial lectin LecB) | binding (FHP8) | binding (FHP31) |
| --- | --- | --- | --- | --- |
| KKLLKLLKLLL (α-L-fucosyl-acetyl on the N-terminus; D-Lys at 1; D-Leu at 11) [FHP5] | binds | binds |  |  |
| KKLLKLLKLLL (α-L-fucosyl-acetyl on the N-terminus; D-Lys at 2; D-Leu at 3 and 4) [FHP8] |  | binds | binds |  |
| KKLLKLLKLLL (α-L-fucosyl-acetyl on the N-terminus; D-Lys at 2 and 8; D-Leu at 4, 6 and 10) [FHP30] |  | binds |  |  |
| KKLLKLLKLLL (α-L-fucosyl-acetyl on the N-terminus; D-Lys at 1 and 5; D-Leu at 3, 7, 9 and 11) [FHP31] |  | binds |  | binds |
